Results reported in the supplement of paper PMC8166895.
Values joined by “and” are separate entries in the source; they are usually repeats but may differ in a detail not shown here. Equal entries are not always repeated. Structures can show the parent of a compound that is named as a salt. The list shows a part of the results. Most entries show no effect beyond the scatter of the controls.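 Differential scanning fluorimetry gave melting temperatures in a one-replicate pilot screen of a library of approved drugs plus clinical or known-target compounds. Hits increasing melting point at least 2 °C were the strongest stabilizers, while negative shifts signify destabilization.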

System: SARS-CoV-2 main protease (Mpro, nsp5)
Experiment: thermal shift ΔTm of Mpro relative to plate average Tm; higher = stronger thermal stabilization of Mpro (binding)
Settings: 10 µM; protein concentration 1 µM

Row | Compound | thermal shift ΔTm of Mpro
1 | CC(C)[C@H](N=C(NS(=O)(=O)c1ccc(Cl)cc1)N1C[C@H](c2ccccc2)C(c2ccc(Cl)cc2)=N1)C(N)=O | 0.0716 °C
2 | O=c1cc(N2CCOCC2)oc2c(-c3ccccc3)cccc12 | 0.144 °C
3 | COc1cccc(-c2cc(F)ccc2C2Cc3nc(N)nc(C)c3C(=O)N2)n1 (configuration not stated) | -0.0627 °C
4 | CCOC(N)=O [Urethane] | -0.0329 °C
5 | O=C(O)CCC(=O)c1ccc(-c2ccccc2)cc1 [Fenbufen] | 0.0969 °C
6 | CN1CCN2c3ccccc3Cc3ccccc3C2C1 (configuration not stated) [Mianserin HCl] | 0.163 °C
7 | CCCCCCCCOc1ccccc1C(=O)Nc1ccc(C(=O)OCC[N+](C)(CC)CC)cc1 [Otilonium Bromide] | -0.417 °C
8 | CN1CCCN(C(=O)c2cccc(-c3ccc(/C=C4/C(=O)Nc5ccc(Cl)cc54)o3)c2)CC1 | 0.144 °C
9 | CCCCc1ncc(/C=C(\Cc2cccs2)C(=O)O)n1Cc1ccc(C(=O)O)cc1 [Eprosartan Mesylate] | -0.175 °C
10 | CN(C)CCc1c[nH]c2ccc(CS(=O)(=O)N3CCCC3)cc12 [Almotriptan Malate] | 0.157 °C
11 | Cn1nc(C(C)(C)C)cc1C(=O)N[C@@H](Cc1cccc(Cl)c1)C(=O)NCC#N [Cathepsin Inhibitor 1] | -0.0687 °C
12 | CCc1ccc(OCc2ccccc2C(=O)Nc2ccc3nc(C)cc(N)c3c2)cc1 | 0.0056 °C
13 | CN(c1ncccc1CNc1nc(Nc2ccc3c(c2)CC(=O)N3)ncc1C(F)(F)F)S(C)(=O)=O | -0.155 °C and -0.0747 °C and -0.221 °C
14 | CC(CNC(=O)c1cccnc1)NC(=O)c1cccnc1 (configuration not stated) [Nicaraven] | 0.134 °C
15 | O=C1C=CC[C@@H]2[C@H]3CCCN4CCC[C@@H](CN12)[C@@H]34 [Sophocarpine] | -0.0961 °C
16 | Clc1cccc(CN=C2Nc3ccccc3NC23CCNCC3)c1 [Liproxstatin-1] | -0.133 °C
17 | O=C(Nc1ccccc1)N1CCN(c2nc(-c3ccccc3)ns2)CC1 | -0.0196 °C
18 | CCCC(=O)NCCc1csc(-c2ccc(Cl)cc2)n1 [Azoramide] | 0.309 °C
19 | COc1ccc2[nH]cc(/C=C3\C(=O)Nc4ccc(NC(=O)CCN5CCCCC5)cc43)c2c1 | 0.0271 °C
20 | O=C(NC(Cc1cc(=O)[nH]c2ccccc12)C(=O)O)c1ccc(Cl)cc1 (configuration not stated) [Rebamipide] | 0.0723 °C
21 | COc1ccc(S(=O)(=O)N2CCCN(S(=O)(=O)c3ccc(OC)c(OC)c3)CC2)cc1OC | -0.0481 °C
22 | CCCCCCCCCCCCCCCc1cccc(O)c1C(=O)O [Anacardic Acid] | 0.444 °C
23 | O=C(NNc1nc2cc(F)ccc2n2cccc12)c1cnccn1 | 0.0113 °C
24 | CC(C)c1cc(C(C)C)c(CC(=O)NS(=O)(=O)Oc2c(C(C)C)cccc2C(C)C)c(C(C)C)c1 [Avasimibe] | -0.871 °C

Row | Compound | thermal shift ΔTm of Mpro
25 | COC(=O)/C=C/C(=O)OC [Dimethyl Fumarate] | -0.0799 °C
26 | CCOC(=O)C1=C(C)NC(C)=C(C(=O)OC)C1c1cccc(Cl)c1Cl (configuration not stated) [Felodipine] | -0.123 °C
27 | C[C@@]12C[C@@]3(O)O[C@@H](O1)[C@]1(COC(=O)c4ccccc4)[C@@H]3C[C@]12O[C@@H]1O[C@H](COC(=O)c2ccccc2)[C@@H](O)[C@H](O)[C@H]1O [Benzoylpaeoniflorin] | -0.00132 °C
28 | CO[C@H]1C[C@H](O[C@@H]2/C(C)=C/C[C@@H]3C[C@@H](C[C@]4(CC[C@H](C)[C@@H](C5CCCCC5)O4)O3)OC(=O)[C@@H]3C=C(C)/C(=N/O)[C@H]4OC/C(=C\C=C\[C@@H]2C)[C@]43O)O[C@@H](C)[C@@H]1O [Selamectin] | -0.418 °C
29 | CN1CCN(Cc2ccc(-c3cnc4[nH]cc(-c5ccc6[nH]ccc6c5)c4c3)cc2)CC1 | -0.199 °C
30 | CC1(C)CC[C@]2(NC(=O)C(C)(F)F)CC[C@]3(C)[C@H](C(=O)C=C4[C@@]5(C)C=C(C#N)C(=O)C(C)(C)[C@@H]5CC[C@]43C)[C@@H]2C1 [Omaveloxolone (RTA-408)] | -0.983 °C
31 | O=C1c2c(O)ccc(O)c2C(=O)c2c(NCCNCCO)ccc(NCCNCCO)c21 [Mitoxantrone HCl] | 0.441 °C
32 | O=C1c2c(O)ccc(O)c2C(=O)c2c(NCCNCCO)ccc(NCCNCCO)c21 [Mitoxantrone] | 0.558 °C
33 | CCOC(=O)c1ccc(NC2CCCCC2)c(N)c1 [Ferrostatin-1 (Fer-1)] | -0.142 °C
34 | CC(=O)O[C@H]1C[C@@H]2CC[C@@H]3[C@H](CC[C@@]4(C)[C@H]3C[C@H]([N+]3(C)CCCCC3)[C@@H]4OC(C)=O)[C@@]2(C)C[C@@H]1[N+]1(C)CCCCC1 [Pancuronium dibromide] | 0.0124 °C
35 | CC(C)c1cnn2c(NCc3ccccc3)cc(NCCCCCCN)nc12 | -0.122 °C and -0.157 °C
36 | Cc1ccc(/N=C/N(C)/C=N/c2ccc(C)cc2C)c(C)c1 [Amitraz] | -0.117 °C
37 | COc1cc2nc(N3CCCN(C)CC3)nc(NC3CCN(Cc4ccccc4)CC3)c2cc1OC | -0.19 °C
38 | N[C@@H](CCCCNC(=O)C(F)(F)F)C(=O)O [N-6-Trifluoroacetyl-L-lysine] | 0.233 °C
39 | O=C(c1ccc(F)c(F)c1Nc1ccc(I)cc1F)N1CC(O)([C@@H]2CCCCN2)C1 [Cobimetinib (GDC-0973, RG7420)] | -0.22 °C
40 | O=c1c2ccccc2[se]n1-c1ccccc1 [Ebselen] | -9.09 °C
41 | CN1CCN(c2ccc3[nH]c(-c4ccc5[nH]c(-c6ccc(O)cc6)nc5c4)nc3c2)CC1 | 0.498 °C
42 | Cc1c(C(=O)N2CCOc3ccc(-c4ccc(N)nc4)cc3C2)ccc(S(C)(=O)=O)c1F | -0.127 °C
43 | c1ccc2c(c1)Nc1ccccc1S2 [Phenothiazine] | 0.432 °C
44 | CC(NCCc1ccc(O)cc1)C(O)c1ccc(O)cc1 (configuration not stated) [Ritodrine HCl] | 0.262 °C
45 | C[N+](C)(CCOc1ccccc1)Cc1ccccc1.O=C([O-])c1cc2ccccc2cc1O [Bephenium Hydroxynaphthoate] | 0.25 °C
46 | NC1CCN(c2c(F)cc3c(=O)c(C(=O)O)cn(C4CC4)c3c2Cl)C1 (configuration not stated) [Clinafloxacin] | 0.00239 °C
47 | NC[C@@H]1O[C@H](O[C@H]2[C@@H](O)[C@H](O[C@@H]3[C@@H](O)[C@H](N)C[C@H](N)[C@H]3O[C@H]3O[C@H](CN)[C@@H](O)[C@H](O)[C@H]3N)O[C@@H]2CO)[C@H](N)[C@@H](O)[C@@H]1O [Neomycin Sulphate B] | -0.0878 °C

Looked up one by one from the entries so far (three):
Row | Compound | thermal shift ΔTm of Mpro
41 | CN1CCN(c2ccc3[nH]c(-c4ccc5[nH]c(-c6ccc(O)cc6)nc5c4)nc3c2)CC1 | 0.498 °C
37 | COc1cc2nc(N3CCCN(C)CC3)nc(NC3CCN(Cc4ccccc4)CC3)c2cc1OC | -0.19 °C
36 | Cc1ccc(/N=C/N(C)/C=N/c2ccc(C)cc2C)c(C)c1 [Amitraz] | -0.117 °C
